This note sets out measurements from patent publication US20210322455A1.

Amino acid sequences for entries named in this document (tags omitted). A change or cut given only in a name is not applied to a line headed by its entry.
UniProt P20152: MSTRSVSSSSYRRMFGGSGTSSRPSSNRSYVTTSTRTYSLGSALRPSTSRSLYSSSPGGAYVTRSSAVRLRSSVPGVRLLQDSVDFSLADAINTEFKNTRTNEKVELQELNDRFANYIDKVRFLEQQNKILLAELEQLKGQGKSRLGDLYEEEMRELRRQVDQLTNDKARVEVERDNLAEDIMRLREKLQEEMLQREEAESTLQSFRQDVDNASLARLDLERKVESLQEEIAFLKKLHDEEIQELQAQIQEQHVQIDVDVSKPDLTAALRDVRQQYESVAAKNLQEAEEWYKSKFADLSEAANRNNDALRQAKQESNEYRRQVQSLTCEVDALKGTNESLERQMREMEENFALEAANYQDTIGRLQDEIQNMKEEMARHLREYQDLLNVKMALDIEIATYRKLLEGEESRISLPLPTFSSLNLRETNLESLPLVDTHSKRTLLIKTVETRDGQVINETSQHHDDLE
UniProt Q02111: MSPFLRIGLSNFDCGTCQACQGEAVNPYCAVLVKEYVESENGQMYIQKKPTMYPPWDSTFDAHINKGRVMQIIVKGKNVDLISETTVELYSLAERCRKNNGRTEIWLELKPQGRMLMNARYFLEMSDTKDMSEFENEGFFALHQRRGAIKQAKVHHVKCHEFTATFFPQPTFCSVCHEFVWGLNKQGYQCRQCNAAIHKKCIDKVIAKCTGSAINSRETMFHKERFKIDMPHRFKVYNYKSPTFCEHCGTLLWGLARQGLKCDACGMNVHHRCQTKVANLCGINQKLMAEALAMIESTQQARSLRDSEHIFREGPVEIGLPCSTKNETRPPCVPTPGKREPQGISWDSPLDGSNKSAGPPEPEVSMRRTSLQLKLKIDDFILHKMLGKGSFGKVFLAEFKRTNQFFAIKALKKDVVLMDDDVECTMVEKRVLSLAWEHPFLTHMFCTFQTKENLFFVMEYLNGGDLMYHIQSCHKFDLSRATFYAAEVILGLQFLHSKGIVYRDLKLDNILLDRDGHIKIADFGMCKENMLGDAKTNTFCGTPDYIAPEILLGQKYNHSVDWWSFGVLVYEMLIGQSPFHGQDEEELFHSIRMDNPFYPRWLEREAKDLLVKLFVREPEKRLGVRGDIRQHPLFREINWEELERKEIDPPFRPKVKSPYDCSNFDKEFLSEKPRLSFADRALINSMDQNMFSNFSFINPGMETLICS

This experiment addresses vimentin (mouse) (UniProt P20152). The experiment can be described thus: confocal microscopy of PKC-θ and vimentin staining in Tregs after 5 minutes of anti-CD3/CD28 mAb activation.

These are yes or no findings as the source states them, for the method shown. Some results given as binding are weak or reduced against the parent protein; the word gives no strength.

For “Protein kinase C-theta (PKC-θ) (from UniProt Q02111 1-707) (enzyme)”, the binding result is recorded as “binds”.
